Measured values as given in article PMC10607544.
Positions count from the first letter of the chain named. These are yes or no findings as the source states them, for the method shown. Binding calls can cover weak binding; strength is not graded here.

Legend:
Assay in all cases: two-hybrid; Sh2 and Sh2 Ser31A/D/E in pGBK-T7 as bait, Bt2 in pGAD-T7 as prey; yeast AH109; SD/-leu-trp and SD/-trp-leu-his-ade/X-alpha-gal plates, gradient dilutions
[1] = target: T1, AGPase large subunit Sh2 (shrunken2), yeast two-hybrid bait PGBK-T7-Sh2 (maize) (UniProt P55241)
T1 sequence: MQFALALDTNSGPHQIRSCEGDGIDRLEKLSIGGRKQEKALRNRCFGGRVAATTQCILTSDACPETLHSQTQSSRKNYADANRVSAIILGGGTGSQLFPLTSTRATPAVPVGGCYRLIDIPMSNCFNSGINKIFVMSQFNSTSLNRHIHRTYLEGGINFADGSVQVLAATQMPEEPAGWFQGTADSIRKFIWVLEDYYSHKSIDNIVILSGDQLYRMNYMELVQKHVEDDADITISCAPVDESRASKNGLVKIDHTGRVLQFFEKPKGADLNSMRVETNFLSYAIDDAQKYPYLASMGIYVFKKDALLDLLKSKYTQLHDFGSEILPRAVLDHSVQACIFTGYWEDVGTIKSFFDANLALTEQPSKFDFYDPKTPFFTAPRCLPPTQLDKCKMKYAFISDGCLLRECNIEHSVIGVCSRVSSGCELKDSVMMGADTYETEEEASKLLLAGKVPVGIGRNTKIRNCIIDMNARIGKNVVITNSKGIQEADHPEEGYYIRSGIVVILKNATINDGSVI

[2] = target: T2, Sh2-S31A, yeast two-hybrid bait PGBK-T7-Sh2-S31A (maize) (UniProt P55241)
T2 sequence: T1 sequence with S31A

[3] = target: T3, Sh2-S31D, yeast two-hybrid bait PGBK-T7-Sh2-S31D (maize) (UniProt P55241)
T3 sequence: T1 sequence with S31D

[4] = target: T4, Sh2-S31E, yeast two-hybrid bait PGBK-T7-Sh2-S31E (maize) (UniProt P55241)
T4 sequence: T1 sequence with S31E

Measured: binding

AGPase small subunit Bt2, yeast two-hybrid prey PGAD-T7-Bt2 (maize)
binds: all assays above
